Reference: PubChem BioAssay AID1259289 (Sanger Institute, 2017)

Assay: 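Kinase-wide silencing tested with three anchor drugs to reveal synergistic lethal pairs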 (primary screen)
Cells: human LS513 colorectal cancer cells
Reagent: siRNA pool against human genes
Challenge: anchor drug BYL719 at 1 µM, cetuximab at 5 µg/ml or trametinib at 10 nM, or DMSO vehicle alone; exposure time not given
Read-out: 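Survival versus non-targeting pool for each arm averaged over replicates, robust z-score in the arm with DMSO only, and synergy scores for BYL719, cetuximab or trametinib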
Scale: robust z-score, siRNA alone (DMSO): higher = more viable cells; strongly negative means essential; viability with DMSO vs control: higher = more viable cells
Units: viability with DMSO vs control in fraction of control
Active means: 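a gene counts as active if its DMSO-only robust z-score falls under -3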
Calls: active = essential (knock-down alone); inactive = not essential
Shown is an unselected part of 794 deposited reagents. 16 of them (2%) count as active. 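Active marks cell loss from silencing alone; drug synergy shows only in the synergy scores, not the calls.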 No viability above 1 is reported: the scale is capped. Further read-outs or replicates are left out here. Reagent sequences are not shown. Not given: the amount of reagent, the time to read-out.

For PAPSS1, what does the deposit list?
robust z-score, siRNA alone (DMSO): 0.561; viability with DMSO vs control: 1; outcome: inactive

With CDK19, what does the deposit list?
robust z-score, siRNA alone (DMSO): 0.561; viability with DMSO vs control: 1; outcome: inactive

How did the screen score AKT2?
robust z-score, siRNA alone (DMSO): 0.243; viability with DMSO vs control: 0.955; outcome: inactive

What did the screen give for AK2?
robust z-score, siRNA alone (DMSO): 0.561; viability with DMSO vs control: 1; outcome: inactive

For MATK, what does the deposit list?
robust z-score, siRNA alone (DMSO): 0.561; viability with DMSO vs control: 1; outcome: inactive

What did the screen give for MAP4K5?
robust z-score, siRNA alone (DMSO): 0.139; viability with DMSO vs control: 0.94; outcome: inactive

With SRGAP3, what does the deposit list?
robust z-score, siRNA alone (DMSO): 0.561; viability with DMSO vs control: 1; outcome: inactive

What is on record for GRK1?
robust z-score, siRNA alone (DMSO): 0.561; viability with DMSO vs control: 1; outcome: inactive

What did the screen give for CTNNB1?
robust z-score, siRNA alone (DMSO): -3.83; viability with DMSO vs control: 0.377; outcome: active

For BMAL1, what was measured?
robust z-score, siRNA alone (DMSO): -1.16; viability with DMSO vs control: 0.756; outcome: inactive

With CDK5, what does the deposit list?
robust z-score, siRNA alone (DMSO): 0.561; viability with DMSO vs control: 1; outcome: inactive

Which result is listed for LCK?
robust z-score, siRNA alone (DMSO): 0.561; viability with DMSO vs control: 1; outcome: inactive

How did the screen score TCF7L2?
robust z-score, siRNA alone (DMSO): 0.561; viability with DMSO vs control: 1; outcome: inactive

What is on record for STK11?
robust z-score, siRNA alone (DMSO): 0.561; viability with DMSO vs control: 1; outcome: inactive

Which result is listed for PIP5K1C?
robust z-score, siRNA alone (DMSO): 0.561; viability with DMSO vs control: 1; outcome: inactive

For MOS, what was measured?
robust z-score, siRNA alone (DMSO): 0.352; viability with DMSO vs control: 0.97; outcome: inactive

How did the screen score ALPK2?
robust z-score, siRNA alone (DMSO): 0.561; viability with DMSO vs control: 1; outcome: inactive

With WNK1, what was measured?
robust z-score, siRNA alone (DMSO): 0.561; viability with DMSO vs control: 1; outcome: inactive

What is on record for FGFR4?
robust z-score, siRNA alone (DMSO): 0.561; viability with DMSO vs control: 1; outcome: inactive

What is on record for BMX?
robust z-score, siRNA alone (DMSO): 0.561; viability with DMSO vs control: 1; outcome: inactive

For JAK3, how do the results read?
robust z-score, siRNA alone (DMSO): 0.561; viability with DMSO vs control: 1; outcome: inactive

For PDXK, what does the deposit list?
robust z-score, siRNA alone (DMSO): 0.561; viability with DMSO vs control: 1; outcome: inactive

What did the screen give for MPP3?
robust z-score, siRNA alone (DMSO): -1.02; viability with DMSO vs control: 0.775; outcome: inactive

With DMPK, how do the results read?
robust z-score, siRNA alone (DMSO): -0.617; viability with DMSO vs control: 0.833; outcome: inactive

For PANK1, what was measured?
robust z-score, siRNA alone (DMSO): 0.561; viability with DMSO vs control: 1; outcome: inactive

For GTF2H1, what does the deposit list?
robust z-score, siRNA alone (DMSO): -2.93; viability with DMSO vs control: 0.505; outcome: inactive

What is on record for PRPS1L1?
robust z-score, siRNA alone (DMSO): 0.561; viability with DMSO vs control: 1; outcome: inactive

With PIK3C2A, how do the results read?
robust z-score, siRNA alone (DMSO): -3.55; viability with DMSO vs control: 0.416; outcome: active
